Laboratory results published in publication PMC11722552.

By UniProt entry, the sequences of proteins in these tests, tags left out. Where a name states a change or a piece, a line headed by the entry shows the natural chain unless it says otherwise.
UniProt Q15388: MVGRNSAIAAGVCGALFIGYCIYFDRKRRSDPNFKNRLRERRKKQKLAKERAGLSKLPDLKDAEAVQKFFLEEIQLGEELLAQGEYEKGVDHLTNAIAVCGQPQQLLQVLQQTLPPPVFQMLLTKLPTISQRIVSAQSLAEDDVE
UniProt Q9DCC8: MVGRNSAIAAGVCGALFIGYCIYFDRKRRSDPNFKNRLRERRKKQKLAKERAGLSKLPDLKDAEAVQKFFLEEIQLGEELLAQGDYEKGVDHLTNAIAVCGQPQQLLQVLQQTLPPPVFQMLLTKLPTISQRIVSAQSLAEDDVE
UniProt O75521: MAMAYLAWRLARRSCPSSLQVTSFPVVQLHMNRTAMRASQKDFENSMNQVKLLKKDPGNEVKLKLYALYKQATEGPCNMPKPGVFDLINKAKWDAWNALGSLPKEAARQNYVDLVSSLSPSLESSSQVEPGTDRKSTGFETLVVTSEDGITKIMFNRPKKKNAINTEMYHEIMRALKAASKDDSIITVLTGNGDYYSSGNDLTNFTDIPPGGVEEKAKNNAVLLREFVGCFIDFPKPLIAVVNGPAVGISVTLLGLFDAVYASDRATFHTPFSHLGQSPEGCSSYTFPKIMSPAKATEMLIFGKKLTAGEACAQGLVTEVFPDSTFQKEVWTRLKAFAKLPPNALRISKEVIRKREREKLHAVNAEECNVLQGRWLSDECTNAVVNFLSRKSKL
UniProt Q9WUR2: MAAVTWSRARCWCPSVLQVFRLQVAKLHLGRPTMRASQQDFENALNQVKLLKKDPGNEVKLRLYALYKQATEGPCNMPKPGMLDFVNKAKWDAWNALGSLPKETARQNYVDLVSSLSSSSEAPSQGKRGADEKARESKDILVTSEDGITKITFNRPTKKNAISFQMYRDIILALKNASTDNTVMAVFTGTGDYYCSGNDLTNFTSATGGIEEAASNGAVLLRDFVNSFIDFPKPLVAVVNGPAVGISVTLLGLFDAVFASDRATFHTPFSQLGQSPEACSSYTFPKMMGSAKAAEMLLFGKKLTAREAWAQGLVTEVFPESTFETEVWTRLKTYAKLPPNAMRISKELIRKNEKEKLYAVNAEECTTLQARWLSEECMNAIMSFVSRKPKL

Key:
[1] = target: TOMM20 (translocase of the mitochondrial outer membrane complex subunit 20) (human (endogenous in fibroblasts)) (UniProt Q15388); assay: proximity ligation; Duolink in situ PLA on fixed, methanol-permeabilised human fibroblasts, endogenous proteins; control compared with patients' fibroblasts, also after GDAP1-Myc transfection or GSH-MEE treatment
[2] = target: TOMM20 (translocase of the mitochondrial outer membrane complex subunit 20) (mouse (endogenous in embryonic motor neurons)) (UniProt Q9DCC8); assay: proximity ligation; Duolink in situ PLA on fixed, permeabilised (0.4% Triton X-100) cultured mouse embryonic motor neurons, endogenous proteins; wild-type compared with Gdap1-/-

binding [1]	binding [2]	Substance
binds	–	PECI (acyl-coenzyme A-binding domain (ACBD)2/ECI2 isoform A of peroxisomes) (from UniProt O75521)
–	binds	PECI (acyl-coenzyme A-binding domain (ACBD)2/ECI2 isoform A of peroxisomes) (from UniProt Q9WUR2)

These are yes or no findings as the source states them, for the method shown. Binding seen in cells or lysates may run through a third protein. Binding calls can cover weak binding; strength is not graded here.
